Data as given in PubChem BioAssay AID1159579 (Peter MacCallum Cancer Centre, 2015).
The deposit covers about 2,000 reagents; shown is a random part of them. 549 of them (27%) count as active. 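Some migration ratios are negative; siRNAs with too few cells are inactive whatever their migration ratio.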 The numbers tell different reagents against one gene apart. Reagent sequences are not shown. Not given: the time to read-out.

Purpose: 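Retest candidate lymphatic endothelial migration regulators using several independent siRNAs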 (follow-up of hits)
Cells: human dermal lymphatic endothelial cells
Knock-down reagent: single siRNA against human genes, 25 nM
Read-out: 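High content images of wound closure area and cell nuclei counts, each the average of two wells, expressed against mock transfection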
Reading the numbers: migration relative to mock: higher = more migration into the scratch; mean nuclei count: higher = more cells remaining
Hit rule: 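a ratio of at most 0.6 or at least 1.3 marks altered migration and an active call; a mean nuclei count under 3300 forces an inactive call regardless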
Calls: active = migration changed (impaired or accelerated); inactive = no migration change, or too few cells

SYNGR2 (synaptogyrin 2) #1
- migration relative to mock: 0.38
- migration and cell number class: migration reduced
- mean nuclei count: 6166
- Outcome: active

SYNGR2 (synaptogyrin 2) #2
- migration relative to mock: 0.94
- migration and cell number class: no change in migration or cell number
- mean nuclei count: 6625
- Outcome: inactive

SYNGR2 (synaptogyrin 2) #3
- migration relative to mock: 0.72
- migration and cell number class: no change in migration or cell number
- mean nuclei count: 4232
- Outcome: inactive

SYNGR2 (synaptogyrin 2) #4
- migration relative to mock: 0.9
- migration and cell number class: no change in migration or cell number
- mean nuclei count: 7190
- Outcome: inactive

PXYLP1 (2-phosphoxylose phosphatase 1) #1
- migration relative to mock: 0.9
- migration and cell number class: no change in migration or cell number
- mean nuclei count: 6629
- Outcome: inactive

PXYLP1 (2-phosphoxylose phosphatase 1) #2
- migration relative to mock: 0.74
- migration and cell number class: no change in migration or cell number
- mean nuclei count: 6155
- Outcome: inactive

PXYLP1 (2-phosphoxylose phosphatase 1) #3
- migration relative to mock: 0.32
- migration and cell number class: migration reduced
- mean nuclei count: 5297
- Outcome: active

PXYLP1 (2-phosphoxylose phosphatase 1) #4
- migration relative to mock: 1
- migration and cell number class: no change in migration or cell number
- mean nuclei count: 6766
- Outcome: inactive

ZNF654 (zinc finger protein 654) #1
- migration relative to mock: 0.92
- migration and cell number class: no change in migration or cell number
- mean nuclei count: 5212
- Outcome: inactive

ZNF654 (zinc finger protein 654) #2
- migration relative to mock: 0.89
- migration and cell number class: no change in migration or cell number
- mean nuclei count: 3784
- Outcome: inactive

ZNF654 (zinc finger protein 654) #3
- migration relative to mock: 1.1
- migration and cell number class: no change in migration or cell number
- mean nuclei count: 5704
- Outcome: inactive

ZNF654 (zinc finger protein 654) #4
- migration relative to mock: 0.9
- migration and cell number class: no change in migration or cell number
- mean nuclei count: 4521
- Outcome: inactive

TMEM132E (transmembrane protein 132E) #1
- migration relative to mock: -0.25
- migration and cell number class: migration reduced
- mean nuclei count: 3450
- Outcome: active

TMEM132E (transmembrane protein 132E) #2
- migration relative to mock: 0.61
- migration and cell number class: no change in migration or cell number
- mean nuclei count: 5879
- Outcome: inactive

TMEM132E (transmembrane protein 132E) #3
- migration relative to mock: 0.71
- migration and cell number class: no change in migration or cell number
- mean nuclei count: 5707
- Outcome: inactive

TMEM132E (transmembrane protein 132E) #4
- migration relative to mock: 0.38
- migration and cell number class: migration reduced
- mean nuclei count: 4366
- Outcome: active

HSPA5 (heat shock protein family A (Hsp70) member 5) #1
- migration relative to mock: 1.04
- migration and cell number class: no change in migration or cell number
- mean nuclei count: 7137
- Outcome: inactive

HSPA5 (heat shock protein family A (Hsp70) member 5) #2
- migration relative to mock: 1.08
- migration and cell number class: no change in migration or cell number
- mean nuclei count: 5766
- Outcome: inactive

HSPA5 (heat shock protein family A (Hsp70) member 5) #3
- migration relative to mock: 0.98
- migration and cell number class: no change in migration or cell number
- mean nuclei count: 6862
- Outcome: inactive

HSPA5 (heat shock protein family A (Hsp70) member 5) #4
- migration relative to mock: 0.74
- migration and cell number class: no change in migration or cell number
- mean nuclei count: 5270
- Outcome: inactive

FGFR3 (fibroblast growth factor receptor 3) #1
- migration relative to mock: 0.88
- migration and cell number class: no change in migration or cell number
- mean nuclei count: 6050
- Outcome: inactive

FGFR3 (fibroblast growth factor receptor 3) #2
- migration relative to mock: -1.68
- migration and cell number class: too few cells; migration not scored
- mean nuclei count: 864
- Outcome: inactive

FGFR3 (fibroblast growth factor receptor 3) #3
- migration relative to mock: 0.64
- migration and cell number class: no change in migration or cell number
- mean nuclei count: 4916
- Outcome: inactive

FGFR3 (fibroblast growth factor receptor 3) #4
- migration relative to mock: 0.96
- migration and cell number class: no change in migration or cell number
- mean nuclei count: 5592
- Outcome: inactive

Targets listed so far whose target name starts with S or s:
SYNGR2 (synaptogyrin 2) #1
- migration relative to mock: 0.38
- migration and cell number class: migration reduced
- mean nuclei count: 6166
- Outcome: active

SYNGR2 (synaptogyrin 2) #2
- migration relative to mock: 0.94
- migration and cell number class: no change in migration or cell number
- mean nuclei count: 6625
- Outcome: inactive

SYNGR2 (synaptogyrin 2) #3
- migration relative to mock: 0.72
- migration and cell number class: no change in migration or cell number
- mean nuclei count: 4232
- Outcome: inactive

SYNGR2 (synaptogyrin 2) #4
- migration relative to mock: 0.9
- migration and cell number class: no change in migration or cell number
- mean nuclei count: 7190
- Outcome: inactive
